In US9486394B2, “Pharmaceutical foam” (STIEFEL WEST COAST, LLC, priority 2003, dated 2016):
For at least one compound, name, drawing or mass did not settle the structure.

Assay: Stability, pH 4.5 vs pH 5.5 adjusted with potassium hydroxide (Examples 3-4)
Format: physicochemical
Conditions: 6 months

With `CCC[C@@H]1C[C@@H](C(=O)N[C@@H]([C@H]2O[C@H](SC)[C@H](OP(=O)(O)O)[C@@H](O)[C@H]2O)[C@H](C)Cl)N(C)C1` [clindamycin phosphate] the “change in the concentration of clindamycin phosphate” value (pH 4.5 and pH 5.5, 25° C.) was “minimal change” and the “decrease in the concentration of clindamycin phosphate” value (pH 4.5 and pH 5.5, 40° C.) was about 10%.
